Results: publication PMC4474874, “Effect of JAK Inhibitors on Release of CXCL9, CXCL10 and CXCL11 from Human Airway Epithelial Cells” (PLoS ONE, 2015)

Test system: human primary airway epithelial cells
Assay: IL-6 release from IFNγ + TNFα-stimulated human primary airway epithelial cells
Format: cell-based
Protocol: In order to determine whether any of the inhibitory effects of the JAK inhibitors could be attributed to cell death, MTT assays were performed at the end of every experiment. […] In order to address this issue, the levels of IL-6 released from cells stimulated with IFNγ + TNFα were measured.

In the case of `C[C@@H]1CCN(C(=O)N2CCCC2)C[C@@H]1N(C)c1ncnc2[nH]ccc12` [PF956980], the “IC50 for IL-6 release, fold greater than for inhibition of CXCR3 chemokine release” value is reported as ~ 5 fold.
